Test results taken from US10792340B2, “Antibacterial composition for combating carbapenem-resistant gram-negative bacteria comprising ADK protein as active ingredient” (KONKUK UNIVERSITY GLOCAL INDUSTRY-ACADEMIC COLLABORATION …, priority 2015, dated 2020).
Some results were stated once for a whole list of compounds, not compound by compound.

What was measured:
Type in all cases: cell-based
[1] = system: Acinetobacter baumannii KUMC.2014.91; assay: Antibiotic resistance by VITEK II system, KUMC.2014.91; settings: KUMC.2014.91 strain
[2] = system: Acinetobacter baumannii KUMC.2014.90; assay: Antibiotic resistance by VITEK II system, KUMC.2014.90; settings: KUMC.2014.90 strain
[3] = system: Acinetobacter baumannii KUMC.2014.90; assay: Liquid medium microdilution method, KUMC.2014.90; settings: KUMC.2014.90 strain
[4] = system: Acinetobacter baumannii KUMC.2014.91; assay: Liquid medium microdilution method, KUMC.2014.91; settings: KUMC.2014.91 strain

Row | Structure (SMILES) | resistance result value (R), VITEK II system [1] | resistance result value (R), VITEK II system [2] | resistance result value, liquid medium microdilution method [3] | resistance result value, liquid medium microdilution method [4]
1 | C[C@@H](O)[C@H]1C(=O)N2C(C(=O)O)=C(S[C@@H]3CN[C@H](C(=O)N(C)C)C3)[C@H](C)[C@H]12 [meropenem] | > 32 | > 32 | – | –
2 | C[C@@H](O)[C@H]1C(=O)N2C(C(=O)O)=C(S[C@@H]3CN[C@H](C(=O)Nc4cccc(C(=O)O)c4)C3)[C@H](C)[C@H]12 [ertapenem] | > 32 | > 32 | – | –
3 | C[C@@H](O)[C@H]1C(=O)N2C(C(=O)O)=C(SCCNC=N)C[C@H]12 [imipenem] | > 32 | > 32 | greater than 128 μg/ml | greater than 128 μg/ml
